Experimental data: patent US20200155650A1, “Combination treatment of NAFLD and NASH” (CymaBay Therapeutics, Inc., priority 2018, published 2020)
At least one structure is not confirmed: it was looked up by name or label, or the drawing left a doubt.

System: DIO-NASH mouse (C57BL/6J mouse fed a high fat diet)
Assay: Diet-induced obese mouse model of NASH (DIO-NASH), 12 weeks dosing
Assay type: in vivo

CCCCCCCCCCCCCCCC(=O)N[C@@H](CCC(=O)NCCCC[C@H](NC(=O)[C@H](C)NC(=O)[C@H](C)NC(=O)[C@H](CCC(N)=O)NC(=O)CNC(=O)[C@H](CCC(=O)O)NC(=O)[C@H](CC(C)C)NC(=O)[C@H](Cc1ccc(O)cc1)NC(=O)[C@H](CO)NC(=O)[C@H](CO)NC(=O)[C@@H](NC(=O)[C@H](CC(=O)O)NC(=O)[C@H](CO)NC(=O)[C@@H](NC(=O)[C@H](Cc1ccccc1)NC(=O)[C@@H](NC(=O)CNC(=O)[C@H](CCC(=O)O)NC(=O)[C@H](C)NC(=O)[C@@H](N)Cc1cnc[nH]1)[C@@H](C)O)[C@@H](C)O)C(C)C)C(=O)N[C@@H](CCC(=O)O)C(=O)N[C@@H](Cc1ccccc1)C(=O)N[C@H](C(=O)N[C@@H](C)C(=O)N[C@@H](Cc1c[nH]c2ccccc12)C(=O)N[C@@H](CC(C)C)C(=O)N[C@H](C(=O)N[C@@H](CCCNC(=N)N)C(=O)NCC(=O)N[C@@H](CCCNC(=N)N)C(=O)NCC(=O)O)C(C)C)[C@@H](C)CC)C(=O)O [Liraglutide]
Body weight (% relative to vehicle) (12 weeks, seladelpar 10 mg/Kg once/day, liraglutide 0.2 mg/Kg s.c. twice/day, standard deviations in parentheses): 89 (6) %
Steatosis (% relative to baseline) (at 12 weeks, SD in parentheses): −43 (25) %
